Measurements as given in publication PMC8005662.
Results are given in words; binding and its absence hold for the method and conditions named. Binding seen in cells or lysates may run through a third protein. Some results given as binding are weak or reduced against the parent protein; the word gives no strength.

The chains behind the UniProt entries cited, without tags or fusion partners.
UniProt P16220: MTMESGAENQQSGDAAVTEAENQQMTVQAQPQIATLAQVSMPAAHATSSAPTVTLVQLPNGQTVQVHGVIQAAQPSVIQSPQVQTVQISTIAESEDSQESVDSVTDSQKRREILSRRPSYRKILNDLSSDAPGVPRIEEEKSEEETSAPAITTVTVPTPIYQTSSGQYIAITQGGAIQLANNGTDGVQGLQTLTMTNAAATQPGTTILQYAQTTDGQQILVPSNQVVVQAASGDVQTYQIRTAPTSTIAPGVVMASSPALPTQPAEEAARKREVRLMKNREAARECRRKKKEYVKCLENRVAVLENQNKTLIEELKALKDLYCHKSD

Target: cAMP response element-binding protein (CREB) (human (endogenous in HUVECs)) (UniProt P16220)
Experiment: co-IP; endogenous IP from HUVEC whole-cell lysate; 30 ul lysate with primary antibodies and 50 ul protein A/G Dynabeads, 4 °C, 12 h; input, IgG and IP fractions analysed by western blotting

- binding: binds
B1: lysine methyltransferase 5A (KMT5A) (protein, UniProt Q9NQR1 1-393)
chain: MGEGGAAAALVAAAAAAAAAAAAVVAGQRRRRLGRRARCHGPGRAAGGKMSKPCAVEAAAAAVAATAPGPEMVERRGPGRPRTDGENVFTGQSKIYSYMSPNKCSGMRFPLQEENSVTHHEVKCQGKPLAGIYRKREEKRNAGNAVRSAMKSEEQKIKDARKGPLVPFPNQKSEAAEPPKTPPSSCDSTNAAIAKQALKKPIKGKQAPRKKAQGKTQQNRKLTDFYPVRRSSRKSKAELQSEERKRIDELIESGKEEGMKIDLIDGKGRGVIATKQFSRGDFVVEYHGDLIEITDAKKREALYAQDPSTGCYMYYFQYLSKTYCVDATRETNRLGRLINHSKCGNCQTKLHDIDGVPHLILIASRDIAAGEELLYDYGDRSKASIEAHPWLKH
